# No constants are given. Whether binding was seen depends on the method and setting. In cells and extracts the contact can be indirect. These calls come from enrichment with a bait or labelling near it, and not all partners need be listed. For part of these data: No binding means not detected with the bait. Sequences can lack the tags named with a protein.
# T1: Flag-tagged C-terminal-deleted IARS1 (ΔC, residues 1–1081) (human) (UniProt P41252)
# T1 sequence: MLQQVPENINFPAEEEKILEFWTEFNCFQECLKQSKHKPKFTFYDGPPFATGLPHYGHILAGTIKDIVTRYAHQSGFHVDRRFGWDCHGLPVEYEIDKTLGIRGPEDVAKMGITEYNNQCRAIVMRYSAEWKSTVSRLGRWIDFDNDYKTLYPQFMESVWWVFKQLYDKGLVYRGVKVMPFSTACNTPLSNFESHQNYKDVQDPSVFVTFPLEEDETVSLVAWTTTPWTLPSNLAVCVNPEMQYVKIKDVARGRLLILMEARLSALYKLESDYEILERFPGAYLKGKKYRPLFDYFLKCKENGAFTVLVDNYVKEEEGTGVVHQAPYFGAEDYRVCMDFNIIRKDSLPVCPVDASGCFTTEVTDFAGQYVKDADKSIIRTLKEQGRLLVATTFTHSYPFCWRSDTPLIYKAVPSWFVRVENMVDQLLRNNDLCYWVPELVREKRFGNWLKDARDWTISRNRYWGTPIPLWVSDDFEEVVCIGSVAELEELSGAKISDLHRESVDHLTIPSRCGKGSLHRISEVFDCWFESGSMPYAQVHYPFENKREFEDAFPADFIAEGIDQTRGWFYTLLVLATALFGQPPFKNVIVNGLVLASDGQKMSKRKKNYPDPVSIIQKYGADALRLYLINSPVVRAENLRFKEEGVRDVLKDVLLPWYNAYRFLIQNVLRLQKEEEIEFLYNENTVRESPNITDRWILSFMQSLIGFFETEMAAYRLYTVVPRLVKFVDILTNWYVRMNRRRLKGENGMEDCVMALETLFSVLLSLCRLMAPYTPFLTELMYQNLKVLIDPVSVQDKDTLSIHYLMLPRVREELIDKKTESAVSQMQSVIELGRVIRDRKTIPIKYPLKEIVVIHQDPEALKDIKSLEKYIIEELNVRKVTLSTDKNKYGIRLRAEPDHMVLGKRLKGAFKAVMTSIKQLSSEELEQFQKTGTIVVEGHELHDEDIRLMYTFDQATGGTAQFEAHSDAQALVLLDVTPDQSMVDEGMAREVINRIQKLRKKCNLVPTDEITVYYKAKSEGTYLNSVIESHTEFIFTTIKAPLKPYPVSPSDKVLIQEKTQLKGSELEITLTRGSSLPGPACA
# T2: Flag-tagged IARS1 UNE-I domain (residues 942–1262) (human) (UniProt P41252)
# T2 sequence: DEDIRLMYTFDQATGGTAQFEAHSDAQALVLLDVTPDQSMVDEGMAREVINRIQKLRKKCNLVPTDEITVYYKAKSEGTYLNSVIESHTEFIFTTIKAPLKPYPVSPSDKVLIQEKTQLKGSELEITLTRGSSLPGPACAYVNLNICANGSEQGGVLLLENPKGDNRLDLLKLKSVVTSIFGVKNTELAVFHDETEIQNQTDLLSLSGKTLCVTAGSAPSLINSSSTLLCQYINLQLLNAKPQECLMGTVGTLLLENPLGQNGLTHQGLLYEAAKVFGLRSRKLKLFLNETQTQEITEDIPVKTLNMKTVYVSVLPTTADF
# T3: Flag-tagged wild-type IARS1 (human) (UniProt P41252)
# T3 sequence: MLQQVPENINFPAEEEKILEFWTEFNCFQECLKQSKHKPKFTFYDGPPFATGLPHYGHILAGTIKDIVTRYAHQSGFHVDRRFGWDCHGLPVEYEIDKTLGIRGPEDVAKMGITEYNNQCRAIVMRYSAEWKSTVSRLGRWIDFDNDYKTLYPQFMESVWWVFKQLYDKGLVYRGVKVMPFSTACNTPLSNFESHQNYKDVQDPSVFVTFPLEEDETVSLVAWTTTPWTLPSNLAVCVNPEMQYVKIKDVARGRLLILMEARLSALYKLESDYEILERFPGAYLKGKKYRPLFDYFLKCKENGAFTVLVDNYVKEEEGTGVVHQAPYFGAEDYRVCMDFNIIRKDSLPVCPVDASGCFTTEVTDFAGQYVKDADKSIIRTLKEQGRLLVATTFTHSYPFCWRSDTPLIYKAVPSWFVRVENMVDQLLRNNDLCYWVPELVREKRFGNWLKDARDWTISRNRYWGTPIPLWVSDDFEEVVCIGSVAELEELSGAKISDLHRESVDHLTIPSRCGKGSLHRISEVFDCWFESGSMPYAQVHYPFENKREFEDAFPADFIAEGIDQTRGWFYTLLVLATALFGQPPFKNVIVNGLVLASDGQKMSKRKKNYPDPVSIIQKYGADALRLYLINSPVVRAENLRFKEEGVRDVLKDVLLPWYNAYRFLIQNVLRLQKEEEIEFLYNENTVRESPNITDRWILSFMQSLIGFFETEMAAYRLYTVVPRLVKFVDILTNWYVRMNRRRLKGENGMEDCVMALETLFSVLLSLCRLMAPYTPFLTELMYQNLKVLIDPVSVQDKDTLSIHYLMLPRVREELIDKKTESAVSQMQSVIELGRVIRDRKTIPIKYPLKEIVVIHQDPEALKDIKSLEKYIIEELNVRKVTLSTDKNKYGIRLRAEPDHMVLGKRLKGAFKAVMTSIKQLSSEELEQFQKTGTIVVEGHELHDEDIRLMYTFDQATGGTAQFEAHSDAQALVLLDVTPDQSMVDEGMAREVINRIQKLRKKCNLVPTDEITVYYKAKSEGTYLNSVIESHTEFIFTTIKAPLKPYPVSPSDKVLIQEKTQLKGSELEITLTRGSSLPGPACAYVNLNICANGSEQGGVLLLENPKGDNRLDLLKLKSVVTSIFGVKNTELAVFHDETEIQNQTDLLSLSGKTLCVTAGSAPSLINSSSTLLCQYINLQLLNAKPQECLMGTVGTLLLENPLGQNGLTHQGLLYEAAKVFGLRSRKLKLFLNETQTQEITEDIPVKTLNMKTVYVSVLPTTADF
# T4: Flag-tagged wild-type IARS1 (human), P41252
# T4 chain: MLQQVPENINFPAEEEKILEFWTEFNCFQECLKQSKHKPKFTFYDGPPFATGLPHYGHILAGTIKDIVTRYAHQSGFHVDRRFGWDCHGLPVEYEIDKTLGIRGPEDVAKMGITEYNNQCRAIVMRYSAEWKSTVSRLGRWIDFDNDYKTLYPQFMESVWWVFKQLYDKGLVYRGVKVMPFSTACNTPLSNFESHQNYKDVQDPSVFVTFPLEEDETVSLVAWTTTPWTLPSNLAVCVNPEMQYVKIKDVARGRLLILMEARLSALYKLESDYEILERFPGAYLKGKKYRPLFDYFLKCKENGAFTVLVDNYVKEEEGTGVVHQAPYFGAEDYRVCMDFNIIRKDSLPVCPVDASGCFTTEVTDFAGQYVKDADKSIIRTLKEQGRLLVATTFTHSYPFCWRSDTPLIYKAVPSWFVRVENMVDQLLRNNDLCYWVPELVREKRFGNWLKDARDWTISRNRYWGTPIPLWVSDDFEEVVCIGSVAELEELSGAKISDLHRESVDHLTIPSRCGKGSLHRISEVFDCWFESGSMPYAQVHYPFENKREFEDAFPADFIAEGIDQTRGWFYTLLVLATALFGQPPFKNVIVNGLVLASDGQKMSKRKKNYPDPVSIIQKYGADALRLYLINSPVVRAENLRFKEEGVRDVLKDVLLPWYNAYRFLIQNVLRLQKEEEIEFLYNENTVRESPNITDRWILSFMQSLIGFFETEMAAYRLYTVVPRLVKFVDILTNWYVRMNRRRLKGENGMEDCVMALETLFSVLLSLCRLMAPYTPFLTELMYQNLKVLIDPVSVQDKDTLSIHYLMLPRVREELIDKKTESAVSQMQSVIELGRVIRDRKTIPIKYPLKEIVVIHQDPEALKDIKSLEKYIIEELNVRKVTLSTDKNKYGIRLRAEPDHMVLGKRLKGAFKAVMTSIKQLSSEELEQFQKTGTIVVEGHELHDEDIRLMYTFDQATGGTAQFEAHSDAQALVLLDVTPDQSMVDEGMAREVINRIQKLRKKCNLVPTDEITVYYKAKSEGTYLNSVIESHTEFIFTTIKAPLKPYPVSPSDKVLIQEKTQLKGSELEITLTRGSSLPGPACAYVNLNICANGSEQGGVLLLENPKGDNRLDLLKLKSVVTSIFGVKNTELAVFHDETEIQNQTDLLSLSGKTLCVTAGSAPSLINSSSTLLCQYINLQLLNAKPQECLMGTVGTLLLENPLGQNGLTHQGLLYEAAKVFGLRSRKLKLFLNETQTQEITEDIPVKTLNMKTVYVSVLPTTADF
# Assays:
# Test in all cases: affinity purification with mass spectrometry; Flag-tagged IARS1 constructs transiently expressed in HEK293T, lysed with buffer X, Flag-M2 beads, eluted with 0.4 mg/mL Flag peptide, LC-MS/MS
# [1] = molecular target: T1, Flag-tagged C-terminal-deleted IARS1 (ΔC, residues 1–1081) (human)
# [2] = molecular target: T2, Flag-tagged IARS1 UNE-I domain (residues 942–1262) (human)
# [3] = molecular target: T3, Flag-tagged wild-type IARS1 (human)
# [4] = molecular target: T4, Flag-tagged wild-type IARS1 (human), …; settings: remark: other sources report otherwise
Binder,binding [1],binding [2],binding [3],binding [4]
"DARS1 (aspartyl-tRNA synthetase 1), endogenous (enzyme, UniProt P14868 1-501) MPSASASRKSQEKPREIMDAAEDYAKERYGISSMIQSQEKPDRVLVRVRDLTIQKADEVVWVRARVHTSRAKGKQCFLVLRQQQFNVQALVAVGDHASKQMVKFAANINKESIVDVEGVVRKVNQKIGSCTQQDVELHVQKIYVISLAEPRLPLQLDDAVRPEAEGEEEGRATVNQDTRLDNRVIDLRTSTSQAVFRLQSGICHLFRETLINKGFVEIQTPKIISAASEGGANVFTVSYFKNNAYLAQSPQLYKQMCICADFEKVFSIGPVFRAEDSNTHRHLTEFVGLDIEMAFNYHYHEVMEEIADTMVQIFKGLQERFQTEIQTVNKQFPCEPFKFLEPTLRLEYCEALAMLREAGVEMGDEDDLSTPNEKLLGHLVKEKYDTDFYILDKYPLAVRPFYTMPDPRNPKQSNSYDMFMRGEEILSGAQRIHDPQLLTERALHHGIDLEKIKAYIDSFRFGAPPHAGGGIGLERVTMLFLGLHNVRQTSMFPRDPKRLTP",no binding,binds,–,–
"QARS1 (glutaminyl-tRNA synthetase 1), endogenous (enzyme, UniProt P47897 1-775) MAALDSLSLFTSLGLSEQKARETLKNSALSAQLREAATQAQQTLGSTIDKATGILLYGLASRLRDTRRLSFLVSYIASKKIHTEPQLSAALEYVRSHPLDPIDTVDFERECGVGVIVTPEQIEEAVEAAINRHRPQLLVERYHFNMGLLMGEARAVLKWADGKMIKNEVDMQVLHLLGPKLEADLEKKFKVAKARLEETDRRTAKDVVENGETADQTLSLMEQLRGEALKFHKPGENYKTPGYVVTPHTMNLLKQHLEITGGQVRTRFPPEPNGILHIGHAKAINFNFGYAKANNGICFLRFDDTNPEKEEAKFFTAICDMVAWLGYTPYKVTYASDYFDQLYAWAVELIRRGLAYVCHQRGEELKGHNTLPSPWRDRPMEESLLLFEAMRKGKFSEGEATLRMKLVMEDGKMDPVAYRVKYTPHHRTGDKWCIYPTYDYTHCLCDSIEHITHSLCTKEFQARRSSYFWLCNALDVYCPVQWEYGRLNLHYAVVSKRKILQLVATGAVRDWDDPRLFTLTALRRRGFPPEAINNFCARVGVTVAQTTMEPHLLEACVRDVLNDTAPRAMAVLESLRVIITNFPAAKSLDIQVPNFPADETKGFHQVPFAPIVFIERTDFKEEPEPGFKRLAWGQPVGLRHTGYVIELQHVVKGPSGCVESLEVTCRRADAGEKPKAFIHWVSQPLMCEVRLYERLFQHKNPEDPTEVPGGFLSDLNLASLHVVDAALVDCSVALAKPFDKFQFERLGYFSVDPDSHQGKLVFNRTVTLKEDPGKV",no binding,binds,binds,–
"DARS1 (aspartyl-tRNA synthetase 1), endogenous, P14868 1-501 (enzyme) MPSASASRKSQEKPREIMDAAEDYAKERYGISSMIQSQEKPDRVLVRVRDLTIQKADEVVWVRARVHTSRAKGKQCFLVLRQQQFNVQALVAVGDHASKQMVKFAANINKESIVDVEGVVRKVNQKIGSCTQQDVELHVQKIYVISLAEPRLPLQLDDAVRPEAEGEEEGRATVNQDTRLDNRVIDLRTSTSQAVFRLQSGICHLFRETLINKGFVEIQTPKIISAASEGGANVFTVSYFKNNAYLAQSPQLYKQMCICADFEKVFSIGPVFRAEDSNTHRHLTEFVGLDIEMAFNYHYHEVMEEIADTMVQIFKGLQERFQTEIQTVNKQFPCEPFKFLEPTLRLEYCEALAMLREAGVEMGDEDDLSTPNEKLLGHLVKEKYDTDFYILDKYPLAVRPFYTMPDPRNPKQSNSYDMFMRGEEILSGAQRIHDPQLLTERALHHGIDLEKIKAYIDSFRFGAPPHAGGGIGLERVTMLFLGLHNVRQTSMFPRDPKRLTP",–,–,–,binds
